Values of other authors as cited in US20040259184A1, “Fluorescent methods for the high-throughput quantification of tartrate-resistant acid phosphatase (TRAP)” (Pharmacia Corporation, priority 2003, published 2004).

Test system: OCL formation
Conditions: previously published data (Matsumoto 2000; Kumar 2001); read-out: IC50 of dose dependent inhibition of OCL formation; cited from earlier work

C[S+]([O-])c1ccc(-c2nc(-c3ccc(F)cc3)c(-c3ccncc3)[nH]2)cc1 (stereo not shown) [SB203580]
IC50: 3000 nM
